These are yes or no findings as the source states them, for the method shown. Some binding calls cover weakened binding; strength is not graded here. For some of these results: Where a sequence is shown, tags or fusion partners need not be part of it.
T1: laforin, LexA fusion (UniProt O95278)
T1 sequence: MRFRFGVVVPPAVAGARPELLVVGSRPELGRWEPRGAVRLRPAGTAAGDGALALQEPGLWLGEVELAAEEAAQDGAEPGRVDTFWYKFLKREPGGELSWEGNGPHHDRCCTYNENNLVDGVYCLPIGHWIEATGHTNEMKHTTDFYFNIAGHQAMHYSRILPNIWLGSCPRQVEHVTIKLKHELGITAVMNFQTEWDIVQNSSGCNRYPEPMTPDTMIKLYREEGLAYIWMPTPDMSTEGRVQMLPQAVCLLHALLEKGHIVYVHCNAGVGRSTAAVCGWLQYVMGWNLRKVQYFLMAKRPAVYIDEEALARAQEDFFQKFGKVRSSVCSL

Chains of the proteins cited; added tags and fusions are not shown.
UniProt O43741: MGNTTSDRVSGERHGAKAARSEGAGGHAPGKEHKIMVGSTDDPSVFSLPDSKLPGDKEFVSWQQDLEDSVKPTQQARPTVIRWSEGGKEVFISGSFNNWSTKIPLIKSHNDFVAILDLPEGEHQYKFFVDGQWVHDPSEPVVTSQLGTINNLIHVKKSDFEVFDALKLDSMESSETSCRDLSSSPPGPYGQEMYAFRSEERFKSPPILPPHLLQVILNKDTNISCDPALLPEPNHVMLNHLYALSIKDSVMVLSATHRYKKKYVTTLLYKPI
UniProt P62136: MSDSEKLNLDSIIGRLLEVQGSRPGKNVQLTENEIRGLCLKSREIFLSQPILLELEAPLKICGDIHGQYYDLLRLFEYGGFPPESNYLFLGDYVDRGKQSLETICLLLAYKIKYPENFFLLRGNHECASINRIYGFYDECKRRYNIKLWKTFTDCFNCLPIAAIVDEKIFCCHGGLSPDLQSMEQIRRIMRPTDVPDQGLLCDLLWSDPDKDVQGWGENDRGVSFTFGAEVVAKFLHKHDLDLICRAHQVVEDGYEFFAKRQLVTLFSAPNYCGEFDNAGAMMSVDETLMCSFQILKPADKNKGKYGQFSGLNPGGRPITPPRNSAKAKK

T2: glycogen phosphorylase, muscular isoform (rabbit), LexA fusion (rabbit) (UniProt P00489)
T2 sequence: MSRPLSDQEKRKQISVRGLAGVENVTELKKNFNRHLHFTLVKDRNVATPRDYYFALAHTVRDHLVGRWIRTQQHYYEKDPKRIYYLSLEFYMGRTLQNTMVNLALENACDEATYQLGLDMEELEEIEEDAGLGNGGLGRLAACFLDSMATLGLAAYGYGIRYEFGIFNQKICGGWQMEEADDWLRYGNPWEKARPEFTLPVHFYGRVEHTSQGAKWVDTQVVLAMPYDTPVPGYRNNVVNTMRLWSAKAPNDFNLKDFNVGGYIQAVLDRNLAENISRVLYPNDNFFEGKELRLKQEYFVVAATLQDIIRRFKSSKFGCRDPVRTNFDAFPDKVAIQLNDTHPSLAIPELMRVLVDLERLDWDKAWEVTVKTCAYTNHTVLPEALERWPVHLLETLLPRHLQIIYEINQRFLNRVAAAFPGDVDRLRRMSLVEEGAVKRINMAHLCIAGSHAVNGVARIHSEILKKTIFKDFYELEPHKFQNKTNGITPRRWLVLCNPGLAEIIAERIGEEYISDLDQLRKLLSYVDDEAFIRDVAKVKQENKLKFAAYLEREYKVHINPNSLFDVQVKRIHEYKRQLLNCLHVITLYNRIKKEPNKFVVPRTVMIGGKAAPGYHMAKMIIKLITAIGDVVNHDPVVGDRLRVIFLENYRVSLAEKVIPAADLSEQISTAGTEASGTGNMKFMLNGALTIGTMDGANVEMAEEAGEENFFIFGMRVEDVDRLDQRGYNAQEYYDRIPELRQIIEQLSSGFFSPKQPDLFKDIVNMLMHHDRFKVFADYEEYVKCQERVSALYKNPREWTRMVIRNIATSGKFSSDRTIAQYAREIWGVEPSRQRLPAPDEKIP


Assays:
Test in all cases: two-hybrid; yeast CTY10.5d co-transformed with pACT2-PTG (wild type or N249S) and LexA fusions (pBTM or pEG202 plasmids); β-galactosidase activity in permeabilized cells, Miller units
laforin, LexA fusion = molecular target: T1, laforin, LexA fusion
[1] = molecular target: T2, glycogen phosphorylase, muscular isoform (rabbit), LexA fusion (rabbit)
[2] = molecular target: AMP-activated protein kinase subunit β2, LexA fusion (UniProt O43741)
[3] = molecular target: protein phosphatase 1 alpha, LexA fusion (UniProt P62136)

binding (laforin, LexA fusion)	binding [1]	binding [2]	binding [3]	Binder
binds	binds	binds	binds	protein targeting to glycogen (PTG), wild type, in pACT2 (protein, UniProt Q9UQK1 1-317) MSCTRMIQVLDPRPLTSSVMPVDVAMRLCLAHSPPVKSFLGPYDEFQRRHFVNKLKPLKSCLNIKHKAKSQNDWKCSHNQAKKRVVFADSKGLSLTAIHVFSDLPEEPAWDLQFDLLDLNDISSALKHHEEKNLILDFPQPSTDYLSFRSHFQKNFVCLENCSLQERTVTGTVKVKNVSFEKKVQIRITFDSWKNYTDVDCVYMKNVYGGTDSDTFSFAIDLPPVIPTEQKIEFCISYHANGQVFWDNNDGQNYRIVHVQWKPDGVQTQMAPQDCAFHQTSPKTELESTIFGSPRLASGLFPEWQSWGRMENLASYR
–	binds	binds	binds	protein targeting to glycogen (PTG) N249S variant, in pACT2 (protein, UniProt Q9UQK1 1-317) MSCTRMIQVLDPRPLTSSVMPVDVAMRLCLAHSPPVKSFLGPYDEFQRRHFVNKLKPLKSCLNIKHKAKSQNDWKCSHNQAKKRVVFADSKGLSLTAIHVFSDLPEEPAWDLQFDLLDLNDISSALKHHEEKNLILDFPQPSTDYLSFRSHFQKNFVCLENCSLQERTVTGTVKVKNVSFEKKVQIRITFDSWKNYTDVDCVYMKNVYGGTDSDTFSFAIDLPPVIPTEQKIEFCISYHANGQVFWDNSDGQNYRIVHVQWKPDGVQTQMAPQDCAFHQTSPKTELESTIFGSPRLASGLFPEWQSWGRMENLASYR
